Test results as given in the supplement of paper PMC10849652.
The list shows a part of the results.

Sequences of proteins named here, by UniProt entry; tags and fusion partners are left off. A change or cut given only in a name is not applied to a line headed by its entry.
UniProt Q92851: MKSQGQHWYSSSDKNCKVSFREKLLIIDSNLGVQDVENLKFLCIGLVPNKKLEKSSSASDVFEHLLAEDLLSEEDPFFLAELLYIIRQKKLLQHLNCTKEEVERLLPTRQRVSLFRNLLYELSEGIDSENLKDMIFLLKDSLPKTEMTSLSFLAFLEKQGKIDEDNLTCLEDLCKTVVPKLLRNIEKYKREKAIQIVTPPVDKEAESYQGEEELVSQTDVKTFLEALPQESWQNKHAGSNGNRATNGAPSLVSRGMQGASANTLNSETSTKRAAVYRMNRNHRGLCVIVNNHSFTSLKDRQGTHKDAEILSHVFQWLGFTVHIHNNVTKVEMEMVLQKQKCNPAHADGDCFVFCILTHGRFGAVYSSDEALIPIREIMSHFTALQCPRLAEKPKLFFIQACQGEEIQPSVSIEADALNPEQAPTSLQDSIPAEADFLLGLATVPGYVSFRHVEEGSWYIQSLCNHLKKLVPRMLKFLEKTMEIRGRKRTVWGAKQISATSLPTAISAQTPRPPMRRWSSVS
UniProt Q6P4E1: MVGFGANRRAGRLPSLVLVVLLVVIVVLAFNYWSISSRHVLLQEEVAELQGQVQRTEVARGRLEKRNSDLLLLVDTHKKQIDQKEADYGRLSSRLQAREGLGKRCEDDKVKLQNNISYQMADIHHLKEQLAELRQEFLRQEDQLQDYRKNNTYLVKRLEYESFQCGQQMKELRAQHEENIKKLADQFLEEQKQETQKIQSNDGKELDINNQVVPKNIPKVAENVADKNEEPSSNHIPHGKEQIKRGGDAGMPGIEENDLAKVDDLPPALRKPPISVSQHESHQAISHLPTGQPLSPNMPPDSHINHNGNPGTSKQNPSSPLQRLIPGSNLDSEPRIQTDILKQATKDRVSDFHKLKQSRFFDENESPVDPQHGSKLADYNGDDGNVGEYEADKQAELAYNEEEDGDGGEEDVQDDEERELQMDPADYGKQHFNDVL
UniProt O75794: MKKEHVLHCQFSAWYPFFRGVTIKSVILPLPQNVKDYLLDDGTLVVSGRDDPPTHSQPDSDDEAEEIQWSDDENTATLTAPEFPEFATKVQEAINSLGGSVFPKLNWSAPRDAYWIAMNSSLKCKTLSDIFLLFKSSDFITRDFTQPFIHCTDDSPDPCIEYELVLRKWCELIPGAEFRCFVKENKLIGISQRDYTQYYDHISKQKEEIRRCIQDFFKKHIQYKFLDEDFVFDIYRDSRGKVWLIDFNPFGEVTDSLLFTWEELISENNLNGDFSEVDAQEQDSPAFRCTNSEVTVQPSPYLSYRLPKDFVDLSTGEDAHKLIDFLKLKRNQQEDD
UniProt P55212: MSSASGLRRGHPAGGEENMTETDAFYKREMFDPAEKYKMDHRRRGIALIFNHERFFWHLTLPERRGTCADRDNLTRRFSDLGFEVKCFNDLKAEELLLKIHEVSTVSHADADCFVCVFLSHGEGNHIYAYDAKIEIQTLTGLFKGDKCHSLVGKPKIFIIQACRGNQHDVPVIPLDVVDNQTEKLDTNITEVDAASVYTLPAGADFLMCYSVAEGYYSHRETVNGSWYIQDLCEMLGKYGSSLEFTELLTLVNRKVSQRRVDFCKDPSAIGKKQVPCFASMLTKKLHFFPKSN
UniProt Q8N350: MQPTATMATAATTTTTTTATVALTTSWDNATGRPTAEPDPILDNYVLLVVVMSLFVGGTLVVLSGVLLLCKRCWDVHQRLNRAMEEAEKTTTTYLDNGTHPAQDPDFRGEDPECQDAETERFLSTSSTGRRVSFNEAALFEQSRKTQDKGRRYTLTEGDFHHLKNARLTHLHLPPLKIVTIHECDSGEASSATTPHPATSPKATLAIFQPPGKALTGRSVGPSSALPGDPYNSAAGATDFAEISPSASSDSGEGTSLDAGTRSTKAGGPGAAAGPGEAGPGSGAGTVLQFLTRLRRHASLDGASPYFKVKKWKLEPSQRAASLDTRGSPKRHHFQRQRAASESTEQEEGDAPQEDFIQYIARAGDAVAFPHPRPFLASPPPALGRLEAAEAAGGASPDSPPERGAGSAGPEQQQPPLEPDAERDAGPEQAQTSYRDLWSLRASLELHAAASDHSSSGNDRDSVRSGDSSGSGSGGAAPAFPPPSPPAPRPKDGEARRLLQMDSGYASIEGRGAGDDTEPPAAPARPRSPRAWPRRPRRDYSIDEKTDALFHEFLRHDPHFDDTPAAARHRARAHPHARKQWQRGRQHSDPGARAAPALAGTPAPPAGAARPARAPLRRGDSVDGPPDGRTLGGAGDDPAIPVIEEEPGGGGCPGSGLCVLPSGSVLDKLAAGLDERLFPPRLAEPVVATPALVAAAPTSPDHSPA
UniProt P83916, whole entry, looked up: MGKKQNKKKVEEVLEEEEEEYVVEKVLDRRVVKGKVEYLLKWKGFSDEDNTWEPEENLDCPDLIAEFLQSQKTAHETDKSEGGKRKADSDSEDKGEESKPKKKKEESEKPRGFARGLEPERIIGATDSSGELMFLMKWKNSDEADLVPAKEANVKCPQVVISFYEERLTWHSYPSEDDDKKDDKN
UniProt Q86WR0: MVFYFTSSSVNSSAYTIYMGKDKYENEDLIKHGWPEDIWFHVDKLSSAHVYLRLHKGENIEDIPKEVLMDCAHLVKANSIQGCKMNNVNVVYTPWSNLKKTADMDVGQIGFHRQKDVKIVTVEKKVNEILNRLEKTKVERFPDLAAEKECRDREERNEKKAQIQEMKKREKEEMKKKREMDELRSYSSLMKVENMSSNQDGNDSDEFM
UniProt Q6P1N0: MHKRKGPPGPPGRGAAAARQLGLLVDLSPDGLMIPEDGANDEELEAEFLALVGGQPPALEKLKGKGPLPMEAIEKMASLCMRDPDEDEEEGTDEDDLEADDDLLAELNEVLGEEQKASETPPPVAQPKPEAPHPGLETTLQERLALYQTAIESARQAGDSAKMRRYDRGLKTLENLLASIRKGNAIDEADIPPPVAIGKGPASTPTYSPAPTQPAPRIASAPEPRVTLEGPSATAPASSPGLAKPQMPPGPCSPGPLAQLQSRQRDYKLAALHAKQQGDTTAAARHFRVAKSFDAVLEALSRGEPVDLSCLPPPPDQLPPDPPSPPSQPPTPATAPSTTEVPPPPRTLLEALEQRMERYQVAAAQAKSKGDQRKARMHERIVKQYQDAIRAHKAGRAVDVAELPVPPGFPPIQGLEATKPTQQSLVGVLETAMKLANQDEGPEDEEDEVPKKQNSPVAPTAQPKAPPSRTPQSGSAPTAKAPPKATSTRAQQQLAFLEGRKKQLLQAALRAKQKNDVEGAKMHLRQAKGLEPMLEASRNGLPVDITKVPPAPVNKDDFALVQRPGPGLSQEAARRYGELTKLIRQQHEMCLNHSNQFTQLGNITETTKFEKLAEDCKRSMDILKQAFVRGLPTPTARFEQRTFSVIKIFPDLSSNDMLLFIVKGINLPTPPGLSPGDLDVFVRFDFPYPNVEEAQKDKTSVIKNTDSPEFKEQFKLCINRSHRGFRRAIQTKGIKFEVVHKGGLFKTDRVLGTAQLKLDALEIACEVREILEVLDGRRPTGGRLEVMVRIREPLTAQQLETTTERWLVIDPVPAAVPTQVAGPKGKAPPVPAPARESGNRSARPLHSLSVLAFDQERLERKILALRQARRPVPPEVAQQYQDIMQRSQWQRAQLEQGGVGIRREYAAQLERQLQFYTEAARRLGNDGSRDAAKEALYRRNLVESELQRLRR
UniProt P49368: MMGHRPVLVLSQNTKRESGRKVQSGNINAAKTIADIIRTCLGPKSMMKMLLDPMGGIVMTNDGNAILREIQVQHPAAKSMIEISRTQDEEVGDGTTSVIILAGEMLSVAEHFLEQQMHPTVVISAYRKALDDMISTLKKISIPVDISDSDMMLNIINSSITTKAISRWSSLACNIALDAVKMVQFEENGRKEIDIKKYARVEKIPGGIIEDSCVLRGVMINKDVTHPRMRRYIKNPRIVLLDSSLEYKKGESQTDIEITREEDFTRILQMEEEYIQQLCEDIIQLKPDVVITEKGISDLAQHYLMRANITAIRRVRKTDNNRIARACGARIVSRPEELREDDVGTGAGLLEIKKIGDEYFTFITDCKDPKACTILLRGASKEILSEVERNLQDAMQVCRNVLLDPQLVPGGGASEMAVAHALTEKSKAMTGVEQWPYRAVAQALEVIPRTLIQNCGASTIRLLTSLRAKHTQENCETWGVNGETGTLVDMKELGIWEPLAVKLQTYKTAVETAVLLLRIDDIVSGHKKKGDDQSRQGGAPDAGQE
UniProt Q9NPF0: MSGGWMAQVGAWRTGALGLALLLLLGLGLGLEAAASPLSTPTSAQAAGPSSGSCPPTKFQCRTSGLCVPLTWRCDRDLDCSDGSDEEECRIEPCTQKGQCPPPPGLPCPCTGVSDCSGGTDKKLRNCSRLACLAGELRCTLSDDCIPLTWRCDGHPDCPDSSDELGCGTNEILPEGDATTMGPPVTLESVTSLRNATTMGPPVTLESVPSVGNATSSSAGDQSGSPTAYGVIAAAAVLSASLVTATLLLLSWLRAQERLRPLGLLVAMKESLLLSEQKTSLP
UniProt P48643, whole entry, looked up: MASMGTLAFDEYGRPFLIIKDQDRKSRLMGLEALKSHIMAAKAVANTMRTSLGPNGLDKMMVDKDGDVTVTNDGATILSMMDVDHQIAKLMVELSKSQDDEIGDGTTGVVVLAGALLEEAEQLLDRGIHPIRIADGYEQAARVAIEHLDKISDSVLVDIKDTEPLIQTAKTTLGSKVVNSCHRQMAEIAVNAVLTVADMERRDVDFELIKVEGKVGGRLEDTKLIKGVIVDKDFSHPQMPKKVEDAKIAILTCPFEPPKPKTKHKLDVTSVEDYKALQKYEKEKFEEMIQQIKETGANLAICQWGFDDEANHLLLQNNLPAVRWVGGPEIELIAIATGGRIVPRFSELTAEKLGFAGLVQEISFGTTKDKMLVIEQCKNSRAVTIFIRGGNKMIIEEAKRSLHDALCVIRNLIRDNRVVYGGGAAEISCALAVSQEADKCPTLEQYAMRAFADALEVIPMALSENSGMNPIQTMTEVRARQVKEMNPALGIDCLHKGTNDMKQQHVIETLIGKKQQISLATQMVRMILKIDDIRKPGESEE
UniProt P42575: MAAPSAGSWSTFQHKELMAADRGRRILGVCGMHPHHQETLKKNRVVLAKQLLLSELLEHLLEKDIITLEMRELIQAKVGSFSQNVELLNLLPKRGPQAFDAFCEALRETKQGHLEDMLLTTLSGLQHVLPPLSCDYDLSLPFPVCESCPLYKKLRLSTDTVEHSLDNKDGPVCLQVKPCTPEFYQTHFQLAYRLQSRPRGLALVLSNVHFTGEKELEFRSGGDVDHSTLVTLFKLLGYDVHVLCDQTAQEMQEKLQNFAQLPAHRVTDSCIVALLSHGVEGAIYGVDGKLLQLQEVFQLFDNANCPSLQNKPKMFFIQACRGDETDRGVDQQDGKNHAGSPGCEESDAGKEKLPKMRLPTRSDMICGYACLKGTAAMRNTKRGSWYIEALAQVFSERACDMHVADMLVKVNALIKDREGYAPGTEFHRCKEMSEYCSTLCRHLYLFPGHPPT
UniProt P49427: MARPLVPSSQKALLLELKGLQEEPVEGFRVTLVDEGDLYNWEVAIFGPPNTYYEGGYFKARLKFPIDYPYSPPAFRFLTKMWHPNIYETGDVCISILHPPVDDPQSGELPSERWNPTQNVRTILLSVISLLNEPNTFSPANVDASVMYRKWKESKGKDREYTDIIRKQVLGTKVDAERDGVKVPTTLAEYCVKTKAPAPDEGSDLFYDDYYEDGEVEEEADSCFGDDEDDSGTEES
UniProt P13987: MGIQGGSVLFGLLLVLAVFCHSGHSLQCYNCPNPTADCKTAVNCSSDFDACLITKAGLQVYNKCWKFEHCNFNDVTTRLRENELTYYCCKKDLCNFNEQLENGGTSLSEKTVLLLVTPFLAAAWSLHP
UniProt Q8IVM0: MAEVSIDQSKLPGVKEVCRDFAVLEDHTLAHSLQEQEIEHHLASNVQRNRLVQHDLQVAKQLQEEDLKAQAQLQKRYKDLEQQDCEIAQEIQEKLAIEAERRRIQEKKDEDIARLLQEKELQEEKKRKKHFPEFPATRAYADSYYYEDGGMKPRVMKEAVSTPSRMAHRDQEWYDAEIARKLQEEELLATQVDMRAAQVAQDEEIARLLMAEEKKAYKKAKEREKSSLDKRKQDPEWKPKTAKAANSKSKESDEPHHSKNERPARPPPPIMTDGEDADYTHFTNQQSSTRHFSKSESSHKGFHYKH
UniProt P15529: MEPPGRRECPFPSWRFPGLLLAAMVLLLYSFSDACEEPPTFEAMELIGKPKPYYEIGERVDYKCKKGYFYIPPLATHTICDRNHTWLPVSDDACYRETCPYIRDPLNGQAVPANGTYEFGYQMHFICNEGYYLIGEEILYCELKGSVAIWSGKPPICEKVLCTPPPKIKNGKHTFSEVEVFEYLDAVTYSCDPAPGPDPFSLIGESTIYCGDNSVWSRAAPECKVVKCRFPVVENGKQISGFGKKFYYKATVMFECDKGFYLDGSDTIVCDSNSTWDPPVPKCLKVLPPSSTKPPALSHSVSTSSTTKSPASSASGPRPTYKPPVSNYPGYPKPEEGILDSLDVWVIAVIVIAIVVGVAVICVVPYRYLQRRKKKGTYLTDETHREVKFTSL

Experiments:
Experiment in all cases: log2 fold change, soluble protein after heating vs DMSO (PISA); higher = thermal stabilisation; K562 cells, 10 uM, 30 min; active = over 0.2 and 3.5 SD of the protein, either way, in both replicates (recomputed)
bafetinib = compound: Cc1ccc(NC(=O)c2ccc(CN3CC[C@H](N(C)C)C3)c(C(F)(F)F)c2)cc1Nc1nccc(-c2cncnc2)n1 [bafetinib]
Outline: (§1)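 K562 cells (2×10^6 cells/mL) were treated with 10 μM compound for 30 min, and aliquots were heated for 3 min over 48°C-58°C. Pooled aliquots were extracted in PBS with 0.5% NP-40 at 4°C, and the supernatant after 21,000xg for 90 min was measured by TMTpro 16plex LC-MS/MS with channel sums equalised. Reported thermal stability, relative to control samples and from duplicates, is a log2 fold change.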

[1] = compound: Cc1cccc(CC(=O)N2CCc3c2ccc(-c2cn(C)c4ncnc(N)c24)c3F)n1
Outline: as §1

nilotinib = compound: Cc1cn(-c2cc(NC(=O)c3ccc(C)c(Nc4nccc(-c5cccnc5)n4)c3)cc(C(F)(F)F)c2)cn1 [nilotinib]
Outline: as §1

[2] = compound: Cc1nc(Nc2n[nH]c3c2CN(C(=O)N[C@H](CN(C)C)c2ccccc2)C3(C)C)c2sccc2n1
Outline: as §1

dasatinib = compound: Cc1nc(Nc2ncc(C(=O)Nc3c(C)cccc3Cl)s2)cc(N2CCN(CCO)CC2)n1 [dasatinib]
Outline: as §1

[3] = compound: Cc1ncc(-c2ccnc(Nc3ccc(S(C)(=O)=O)cc3)n2)n1C(C)C
Outline: as §1

[4] = compound: Cn1cc(-c2ccc3c(c2)CCN3C(=O)Cc2cccc(C(F)(F)F)c2)c2c(N)ncnc21
Outline: as §1

[5] = compound: Cn1cc(-c2ccc3nnc(C(F)(F)c4ccc5ncccc5c4)n3n2)cn1
Outline: as §1

tipifarnib = compound: Cn1cncc1[C@@](N)(c1ccc(Cl)cc1)c1ccc2c(c1)c(-c1cccc(Cl)c1)cc(=O)n2C [tipifarnib]
Outline: as §1

mubritinib = compound: FC(F)(F)c1ccc(/C=C/c2nc(COc3ccc(CCCCn4ccnn4)cc3)co2)cc1 [mubritinib]
Outline: as §1

Measured: log2 fold change

CASP10 isoform 4 (UniProt Q92851)
inactive: bafetinib 0.001 | [1] -0.394 | nilotinib -0.087 | [2] -0.103 | dasatinib -0.301 | [3] 0.037 | [4] -0.044 | [5] 0.063 | tipifarnib 0.119 | mubritinib 0.084

CASP3 (UniProt P42574)
inactive: bafetinib -0.031 | [1] -0.042 | nilotinib 0.013 | [2] -0.012 | dasatinib 0.002 | [3] -0.007 | [4] 0.008 | [5] -0.022 | tipifarnib -0.055 | mubritinib 0.007

CASC4 (UniProt Q6P4E1)
inactive: bafetinib -0.066 | [1] -0.038 | nilotinib 0.018 | [2] -0.015 | dasatinib 0.028 | [3] 0.034 | [4] -0.118 | [5] 0.105 | tipifarnib 0.056 | mubritinib 0.012

CDC123 (UniProt O75794)
inactive: bafetinib 0.015 | [1] -0.013 | nilotinib -0.084 | [2] 0.079 | dasatinib -0.032 | [3] 0.018 | [4] 0.029 | [5] -0.04 | tipifarnib -0.031 | mubritinib -0.006

CASP7 isoform 3 (UniProt P55210)
inactive: [1] -0.401 | nilotinib 0.145 | [2] -0.001 | dasatinib -0.239 | [3] -0.102
active: bafetinib -1.01

CASP6 (UniProt P55212)
inactive: bafetinib -0.003 | [1] 0.004 | nilotinib 0.016 | [2] 0.015 | dasatinib 0.033 | [3] -0.026 | [4] 0.035 | [5] -0.034 | tipifarnib -0.019 | mubritinib 0.03

CBARP (UniProt Q8N350)
inactive: bafetinib -0.21 | [1] -0.143 | nilotinib 0.132 | [2] -0.086 | dasatinib 0.15 | [3] 0.042 | [4] -0.228 | [5] 0.013

CAVIN1 (UniProt Q6NZI2)
inactive: bafetinib 0.114 | [1] 0.004 | nilotinib -0.047 | [2] 0.104 | dasatinib -0.001 | [3] -0.11 | [4] -0.157 | [5] -0.204 | tipifarnib 0.125 | mubritinib -0.067

CBX1 (UniProt P83916)
inactive: bafetinib -0.037 | [1] -0.025 | nilotinib 0.141 | [2] -0.089 | dasatinib 0.084 | [3] -0.003 | [4] -0.034 | [5] 0.011 | tipifarnib -0.039 | mubritinib 0.066

CCDC25 (UniProt Q86WR0)
inactive: bafetinib 0 | [1] 0.122 | nilotinib -0.006 | [2] -0.068 | dasatinib -0.026 | [3] -0.022 | [4] 0.008 | [5] -0.013 | tipifarnib -0.053 | mubritinib 0.175

CDC37 (UniProt Q16543)
inactive: bafetinib 0.007 | [1] -0.023 | nilotinib 0 | [2] -0.007 | dasatinib -0.014 | [3] 0.008 | [4] 0.03 | [5] 0.007 | tipifarnib 0.004 | mubritinib 0.018

CC2D1A (UniProt Q6P1N0)
inactive: bafetinib -0.071 | [1] 0.09 | nilotinib -0.008 | [2] -0.003 | dasatinib -0.129 | [3] 0.02 | [4] 0.055 | [5] 0.008 | tipifarnib -0.05 | mubritinib -0.076

CCT3 (UniProt P49368)
inactive: bafetinib -0.017 | [1] -0.023 | nilotinib -0.049 | [2] 0.008 | dasatinib 0.002 | [3] 0 | [4] 0.009 | [5] -0.016 | tipifarnib 0.026 | mubritinib 0.004

CD320 (UniProt Q9NPF0)
inactive: bafetinib -0.063 | [1] -0.046 | nilotinib 0.016 | [2] 0.008 | dasatinib -0.004 | [3] 0.027 | [4] 0.065 | [5] -0.005 | tipifarnib 0.064 | mubritinib 0.037

CD97 (UniProt P48960)
inactive: bafetinib -0.039 | [1] -0.084 | nilotinib 0.003 | [2] -0.002 | dasatinib 0.002 | [3] 0.016 | [4] -0.028 | [5] 0.002 | tipifarnib 0.042 | mubritinib 0.043

CCT5 (UniProt P48643)
inactive: bafetinib 0.035 | [1] 0.051 | nilotinib -0.04 | [2] 0.016 | dasatinib 0.012 | [3] 0.003 | [4] 0.014 | [5] 0.009 | tipifarnib 0.017 | mubritinib -0.008

CASP2 (UniProt P42575)
inactive: bafetinib 0.041 | [1] -0.035 | nilotinib -0.037 | [2] 0.076 | dasatinib -0.165 | [3] 0.114 | [4] 0.105 | [5] -0.056 | tipifarnib -0.118 | mubritinib 0.006

CASC3 (UniProt O15234)
inactive: bafetinib -0.064 | [1] -0.069 | nilotinib -0.064 | dasatinib 0.031 | [4] -0.079 | [5] -0.069 | tipifarnib 0.004 | mubritinib 0.084
active: [2] 0.481 | [3] 0.511

CCT2 (UniProt P78371)
inactive: bafetinib 0.027 | [1] 0.021 | nilotinib -0.053 | [2] 0.016 | dasatinib -0.002 | [3] 0.004 | [4] -0.002 | [5] -0.006 | tipifarnib 0.02 | mubritinib 0.014

CDC34 (UniProt P49427)
inactive: bafetinib -0.018 | [1] 0.108 | nilotinib -0.203 | [2] -0.176 | dasatinib -0.133 | [3] -0.042 | [4] -0.024 | [5] 0.07 | tipifarnib -0.018 | mubritinib -0.088

CD59 isoform 2 (UniProt P13987)
inactive: bafetinib 0.057 | [1] -0.012 | nilotinib 0.158 | [2] 0.008 | dasatinib 0.155 | [3] -0.11 | [4] 0 | [5] -0.028 | tipifarnib 0.032 | mubritinib -0.03

CCDC115 (UniProt Q96NT0)
inactive: bafetinib -0.094 | [1] -0.063 | nilotinib 0.001 | [2] -0.005 | dasatinib -0.003 | [3] -0.038 | [4] 0.037 | [5] 0.013 | tipifarnib 0.023 | mubritinib 0.05

CCT7 (UniProt Q99832)
inactive: bafetinib 0.046 | [1] 0.036 | nilotinib -0.027 | [2] 0.022 | dasatinib 0.022 | [3] 0.004 | [4] 0.025 | [5] 0.001 | tipifarnib 0.021 | mubritinib -0.02

CCDC50 (UniProt Q8IVM0)
inactive: bafetinib -0.017 | [1] 0.002 | nilotinib 0.024 | [2] 0 | dasatinib 0.01 | [3] 0.034 | [4] -0.006 | [5] -0.01 | tipifarnib -0.003 | mubritinib 0.036

CD46 isoform 2 (UniProt P15529)
inactive: bafetinib 0.002 | [1] -0.023 | nilotinib 0.018 | [2] -0.027 | dasatinib -0.034 | [3] 0.018 | [4] 0.078 | [5] 0.012 | tipifarnib 0.005 | mubritinib 0.001

CCDC134 (UniProt Q9H6E4)
inactive: bafetinib -0.025 | [1] -0.003 | nilotinib -0.018 | [2] 0.038 | dasatinib 0.11 | [3] -0.081 | [4] -0.065 | [5] 0.046 | tipifarnib 0.031 | mubritinib -0.024

CBLB (UniProt Q13191)
inactive: bafetinib -0.017 | [1] -0.065 | nilotinib 0.021 | [2] 0.012 | dasatinib 0.018 | [3] -0.06 | [4] 0.053 | [5] 0.034 | tipifarnib 0.049 | mubritinib -0.03

CCS (UniProt O14618)
inactive: bafetinib -0.037 | [1] 0.01 | nilotinib -0.007 | [2] -0.058 | dasatinib -0.053 | [3] -0.038 | [4] 0.029 | [5] 0.066 | tipifarnib -0.035 | mubritinib 0.079

CDC27 isoform 2 (UniProt P30260)
inactive: bafetinib 0.016 | [1] 0.016 | nilotinib -0.005 | [2] 0.004 | dasatinib -0.019 | [3] -0.01 | [4] -0.037 | [5] -0.04 | tipifarnib -0.006 | mubritinib -0.023

CCDC22 (UniProt O60826)
inactive: bafetinib 0 | [1] 0.013 | nilotinib -0.034 | [2] -0.014 | dasatinib -0.087 | [3] 0.064 | [4] -0.025 | [5] -0.023 | tipifarnib 0.014 | mubritinib 0.041

Fetched one by one from the list above, two records:
CBARP (UniProt Q8N350)
inactive: bafetinib -0.21 | [1] -0.143 | nilotinib 0.132 | [2] -0.086 | dasatinib 0.15 | [3] 0.042 | [4] -0.228 | [5] 0.013

CD320 (UniProt Q9NPF0)
inactive: bafetinib -0.063 | [1] -0.046 | nilotinib 0.016 | [2] 0.008 | dasatinib -0.004 | [3] 0.027 | [4] 0.065 | [5] -0.005 | tipifarnib 0.064 | mubritinib 0.037
